In the supplement of paper PMC12819154, “High-throughput peptide-centric local stability assay extends protein–ligand identification to membrane proteins, tissues and bacteria” (Nature Structural & Molecular Biology, 2025):
The list shows a part of the results. Most entries show no effect beyond the scatter of the controls.

Chains of the proteins cited; added tags and fusions are not shown. Lines headed by an entry give the natural chain unless they say otherwise; changes in a name come on top.
UniProt O95249: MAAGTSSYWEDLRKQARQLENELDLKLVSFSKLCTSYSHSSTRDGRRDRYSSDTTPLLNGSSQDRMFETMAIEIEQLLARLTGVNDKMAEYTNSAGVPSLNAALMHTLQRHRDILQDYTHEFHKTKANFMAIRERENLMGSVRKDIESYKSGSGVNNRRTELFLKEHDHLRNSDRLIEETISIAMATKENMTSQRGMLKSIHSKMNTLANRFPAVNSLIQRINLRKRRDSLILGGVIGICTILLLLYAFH
UniProt O75469: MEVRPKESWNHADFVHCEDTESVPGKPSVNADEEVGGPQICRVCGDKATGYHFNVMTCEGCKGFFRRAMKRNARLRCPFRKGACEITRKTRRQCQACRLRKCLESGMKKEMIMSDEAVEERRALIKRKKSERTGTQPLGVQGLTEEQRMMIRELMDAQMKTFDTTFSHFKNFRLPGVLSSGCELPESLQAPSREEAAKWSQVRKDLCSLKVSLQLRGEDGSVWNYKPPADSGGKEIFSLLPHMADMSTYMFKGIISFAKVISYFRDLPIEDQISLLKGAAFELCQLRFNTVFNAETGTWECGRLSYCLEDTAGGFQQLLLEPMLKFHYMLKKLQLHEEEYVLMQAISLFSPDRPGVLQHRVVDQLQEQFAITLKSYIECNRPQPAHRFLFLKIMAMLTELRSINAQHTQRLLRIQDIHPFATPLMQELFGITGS
UniProt O75864: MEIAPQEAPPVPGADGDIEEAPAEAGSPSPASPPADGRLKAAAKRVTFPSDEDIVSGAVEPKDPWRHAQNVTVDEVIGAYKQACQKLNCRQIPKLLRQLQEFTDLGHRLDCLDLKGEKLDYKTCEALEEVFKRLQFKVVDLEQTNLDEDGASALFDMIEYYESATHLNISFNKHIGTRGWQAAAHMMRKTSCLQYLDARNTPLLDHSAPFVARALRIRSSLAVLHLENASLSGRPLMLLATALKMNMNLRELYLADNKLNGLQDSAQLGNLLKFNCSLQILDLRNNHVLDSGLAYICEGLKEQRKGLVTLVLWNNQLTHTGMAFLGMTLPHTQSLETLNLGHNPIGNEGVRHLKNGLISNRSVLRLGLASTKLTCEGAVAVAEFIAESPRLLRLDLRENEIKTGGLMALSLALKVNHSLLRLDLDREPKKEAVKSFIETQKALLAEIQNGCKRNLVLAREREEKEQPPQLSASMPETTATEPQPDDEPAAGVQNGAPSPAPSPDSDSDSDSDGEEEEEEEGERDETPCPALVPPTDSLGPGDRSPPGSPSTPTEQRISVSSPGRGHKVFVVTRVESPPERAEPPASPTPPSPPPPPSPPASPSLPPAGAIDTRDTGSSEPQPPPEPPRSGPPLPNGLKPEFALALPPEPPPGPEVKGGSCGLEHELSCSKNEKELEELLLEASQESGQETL
UniProt O95696: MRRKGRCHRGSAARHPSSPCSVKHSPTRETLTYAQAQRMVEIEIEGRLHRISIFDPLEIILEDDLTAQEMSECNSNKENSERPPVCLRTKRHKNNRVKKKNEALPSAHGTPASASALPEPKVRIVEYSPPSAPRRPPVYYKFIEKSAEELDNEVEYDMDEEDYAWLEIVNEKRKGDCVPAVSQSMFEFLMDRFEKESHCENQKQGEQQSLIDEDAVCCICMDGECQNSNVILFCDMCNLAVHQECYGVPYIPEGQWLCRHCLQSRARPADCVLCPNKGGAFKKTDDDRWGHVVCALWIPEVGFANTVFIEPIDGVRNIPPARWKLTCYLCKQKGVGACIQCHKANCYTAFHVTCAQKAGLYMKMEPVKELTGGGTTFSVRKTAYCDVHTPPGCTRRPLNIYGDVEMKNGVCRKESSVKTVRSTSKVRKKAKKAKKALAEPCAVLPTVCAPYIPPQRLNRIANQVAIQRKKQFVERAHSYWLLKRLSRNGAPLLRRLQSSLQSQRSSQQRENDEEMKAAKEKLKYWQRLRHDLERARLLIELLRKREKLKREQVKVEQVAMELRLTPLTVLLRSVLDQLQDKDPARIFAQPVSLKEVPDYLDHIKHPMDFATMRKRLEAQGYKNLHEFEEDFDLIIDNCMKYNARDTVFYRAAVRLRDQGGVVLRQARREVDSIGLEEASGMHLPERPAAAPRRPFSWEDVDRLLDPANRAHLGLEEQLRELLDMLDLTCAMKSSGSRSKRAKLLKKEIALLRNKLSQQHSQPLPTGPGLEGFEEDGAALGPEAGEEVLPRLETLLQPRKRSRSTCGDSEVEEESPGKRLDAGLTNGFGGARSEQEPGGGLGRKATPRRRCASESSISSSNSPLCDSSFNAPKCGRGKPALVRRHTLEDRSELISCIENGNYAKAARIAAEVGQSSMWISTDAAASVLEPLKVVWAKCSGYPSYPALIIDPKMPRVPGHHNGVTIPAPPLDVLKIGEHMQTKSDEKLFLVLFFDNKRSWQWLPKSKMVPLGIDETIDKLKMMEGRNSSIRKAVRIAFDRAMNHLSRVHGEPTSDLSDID
UniProt O75844: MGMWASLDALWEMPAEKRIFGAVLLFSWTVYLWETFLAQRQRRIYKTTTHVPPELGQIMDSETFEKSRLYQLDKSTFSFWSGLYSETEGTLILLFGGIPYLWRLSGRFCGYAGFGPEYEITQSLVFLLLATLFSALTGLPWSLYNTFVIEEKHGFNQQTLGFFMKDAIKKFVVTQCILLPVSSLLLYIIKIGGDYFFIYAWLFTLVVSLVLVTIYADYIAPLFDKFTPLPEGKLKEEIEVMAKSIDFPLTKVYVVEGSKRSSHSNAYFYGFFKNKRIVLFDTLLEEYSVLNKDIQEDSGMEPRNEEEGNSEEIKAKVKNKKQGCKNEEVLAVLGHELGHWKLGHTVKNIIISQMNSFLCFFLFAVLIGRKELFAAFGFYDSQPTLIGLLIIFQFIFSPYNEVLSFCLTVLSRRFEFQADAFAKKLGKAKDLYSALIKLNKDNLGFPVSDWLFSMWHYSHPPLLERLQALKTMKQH
UniProt O95405: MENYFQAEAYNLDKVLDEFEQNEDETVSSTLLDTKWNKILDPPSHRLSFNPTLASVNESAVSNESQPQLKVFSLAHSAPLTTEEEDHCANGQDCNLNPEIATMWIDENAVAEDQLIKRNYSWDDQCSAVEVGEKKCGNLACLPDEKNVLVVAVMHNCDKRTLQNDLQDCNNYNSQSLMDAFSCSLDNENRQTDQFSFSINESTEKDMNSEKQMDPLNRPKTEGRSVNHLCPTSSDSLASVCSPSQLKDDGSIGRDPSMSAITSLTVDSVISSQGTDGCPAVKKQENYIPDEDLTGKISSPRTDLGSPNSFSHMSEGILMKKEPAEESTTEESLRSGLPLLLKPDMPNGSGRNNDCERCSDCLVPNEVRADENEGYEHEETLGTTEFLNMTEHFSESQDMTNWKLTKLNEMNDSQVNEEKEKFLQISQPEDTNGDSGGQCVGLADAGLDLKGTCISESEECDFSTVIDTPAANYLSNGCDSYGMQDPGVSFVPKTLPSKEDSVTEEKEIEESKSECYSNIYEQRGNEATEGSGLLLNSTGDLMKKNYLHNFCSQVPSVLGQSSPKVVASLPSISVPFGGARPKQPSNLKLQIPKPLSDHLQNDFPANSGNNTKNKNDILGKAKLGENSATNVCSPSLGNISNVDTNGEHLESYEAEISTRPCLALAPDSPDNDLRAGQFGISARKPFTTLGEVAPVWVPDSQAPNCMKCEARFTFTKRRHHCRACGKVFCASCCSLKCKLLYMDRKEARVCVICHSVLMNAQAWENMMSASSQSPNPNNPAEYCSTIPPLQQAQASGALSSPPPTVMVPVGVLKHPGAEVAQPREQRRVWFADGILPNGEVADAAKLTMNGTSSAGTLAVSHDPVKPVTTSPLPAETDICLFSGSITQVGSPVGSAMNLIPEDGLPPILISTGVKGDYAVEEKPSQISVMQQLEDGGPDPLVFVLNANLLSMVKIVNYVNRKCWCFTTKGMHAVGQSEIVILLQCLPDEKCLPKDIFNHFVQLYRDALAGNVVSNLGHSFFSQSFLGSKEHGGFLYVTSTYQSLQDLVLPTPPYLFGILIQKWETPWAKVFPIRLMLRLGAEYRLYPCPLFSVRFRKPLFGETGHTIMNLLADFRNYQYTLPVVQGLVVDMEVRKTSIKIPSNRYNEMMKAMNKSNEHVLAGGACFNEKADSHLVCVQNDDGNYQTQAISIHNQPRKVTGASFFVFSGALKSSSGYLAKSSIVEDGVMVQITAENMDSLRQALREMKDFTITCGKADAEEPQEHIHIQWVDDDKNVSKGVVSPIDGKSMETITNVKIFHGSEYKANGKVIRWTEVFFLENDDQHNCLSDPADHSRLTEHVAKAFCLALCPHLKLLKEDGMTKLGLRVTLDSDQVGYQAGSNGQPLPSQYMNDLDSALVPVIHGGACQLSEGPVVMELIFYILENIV
UniProt O75821, whole entry: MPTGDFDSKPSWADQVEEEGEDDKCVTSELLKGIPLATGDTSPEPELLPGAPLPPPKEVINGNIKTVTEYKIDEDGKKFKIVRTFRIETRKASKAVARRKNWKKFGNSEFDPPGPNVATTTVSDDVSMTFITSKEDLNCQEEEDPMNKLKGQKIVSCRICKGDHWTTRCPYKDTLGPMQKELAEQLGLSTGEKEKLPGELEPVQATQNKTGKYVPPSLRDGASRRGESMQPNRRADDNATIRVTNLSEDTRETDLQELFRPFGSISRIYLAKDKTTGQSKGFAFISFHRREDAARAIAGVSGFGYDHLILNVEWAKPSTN
UniProt O75506: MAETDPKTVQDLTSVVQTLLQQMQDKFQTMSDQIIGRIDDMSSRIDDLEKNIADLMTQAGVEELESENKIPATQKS
UniProt P00558: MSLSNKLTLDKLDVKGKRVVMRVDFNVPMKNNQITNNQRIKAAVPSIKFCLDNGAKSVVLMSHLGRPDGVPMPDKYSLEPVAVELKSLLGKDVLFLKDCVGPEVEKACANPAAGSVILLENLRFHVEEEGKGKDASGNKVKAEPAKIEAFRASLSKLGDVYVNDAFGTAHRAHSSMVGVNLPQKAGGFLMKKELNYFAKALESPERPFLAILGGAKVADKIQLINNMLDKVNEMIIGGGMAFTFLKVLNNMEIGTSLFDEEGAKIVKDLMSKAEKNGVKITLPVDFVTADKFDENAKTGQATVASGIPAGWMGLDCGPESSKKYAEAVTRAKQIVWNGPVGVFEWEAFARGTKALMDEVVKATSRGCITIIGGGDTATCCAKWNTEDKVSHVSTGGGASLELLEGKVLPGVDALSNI
UniProt O95562: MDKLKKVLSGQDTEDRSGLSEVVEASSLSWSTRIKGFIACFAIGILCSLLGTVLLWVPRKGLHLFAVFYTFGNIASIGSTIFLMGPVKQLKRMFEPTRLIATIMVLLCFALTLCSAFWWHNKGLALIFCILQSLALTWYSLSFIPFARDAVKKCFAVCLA
UniProt O95873: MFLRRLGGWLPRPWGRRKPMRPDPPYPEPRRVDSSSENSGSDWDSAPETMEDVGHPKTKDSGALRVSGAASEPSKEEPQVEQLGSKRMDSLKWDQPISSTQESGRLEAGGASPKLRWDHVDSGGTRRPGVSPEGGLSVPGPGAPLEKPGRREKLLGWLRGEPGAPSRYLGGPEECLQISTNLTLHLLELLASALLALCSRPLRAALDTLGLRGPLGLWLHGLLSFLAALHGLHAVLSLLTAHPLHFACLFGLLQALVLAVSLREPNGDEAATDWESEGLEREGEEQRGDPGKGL
UniProt O75478: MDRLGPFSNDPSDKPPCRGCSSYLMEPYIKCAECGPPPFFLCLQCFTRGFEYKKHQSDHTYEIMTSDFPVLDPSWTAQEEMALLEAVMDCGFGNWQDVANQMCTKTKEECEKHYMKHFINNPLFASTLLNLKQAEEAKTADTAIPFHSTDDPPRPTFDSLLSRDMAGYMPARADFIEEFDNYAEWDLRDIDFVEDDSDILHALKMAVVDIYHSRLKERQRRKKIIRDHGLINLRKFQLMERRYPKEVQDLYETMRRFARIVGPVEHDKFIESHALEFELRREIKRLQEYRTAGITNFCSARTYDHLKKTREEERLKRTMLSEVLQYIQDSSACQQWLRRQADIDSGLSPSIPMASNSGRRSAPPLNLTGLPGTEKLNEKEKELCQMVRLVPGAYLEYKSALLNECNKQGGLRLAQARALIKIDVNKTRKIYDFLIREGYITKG
UniProt P00390: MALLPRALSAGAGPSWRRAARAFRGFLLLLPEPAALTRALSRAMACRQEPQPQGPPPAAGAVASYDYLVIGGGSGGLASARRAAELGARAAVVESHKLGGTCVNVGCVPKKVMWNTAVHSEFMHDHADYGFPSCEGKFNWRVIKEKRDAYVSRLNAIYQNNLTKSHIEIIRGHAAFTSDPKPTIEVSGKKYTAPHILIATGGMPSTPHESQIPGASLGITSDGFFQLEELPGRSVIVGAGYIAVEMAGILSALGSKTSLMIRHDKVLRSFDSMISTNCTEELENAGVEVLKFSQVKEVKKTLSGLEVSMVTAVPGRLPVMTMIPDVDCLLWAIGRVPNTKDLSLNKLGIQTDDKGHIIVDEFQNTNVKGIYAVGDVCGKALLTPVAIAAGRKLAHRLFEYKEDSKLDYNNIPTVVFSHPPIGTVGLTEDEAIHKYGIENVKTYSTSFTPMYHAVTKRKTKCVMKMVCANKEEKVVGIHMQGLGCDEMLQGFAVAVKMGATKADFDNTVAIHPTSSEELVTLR

Compound: Cc1nc(Nc2ncc(C(=O)Nc3c(C)cccc3Cl)s2)cc(N2CCN(CCO)CC2)n1 [dasatinib]
Assay: log2 fold change of tryptic peptide abundance, ligand vs vehicle (limited proteolysis) (log2 ratio); higher = more trypsin-susceptible (destabilized)
Details: ligand concentration: 5 uM; sample: K562 cleared lysate

Row | Target | log2 fold change
1 | GOSR1 (peptide sequence: HRDILQDYTHEFHK, peptide start residue: 111) (UniProt O95249) | 0.434
2 | UniProt O75469 (peptide sequence: KCLESGMKK, peptide start residue: 101) | 0.396
3 | PPP1R37 (peptide sequence: TCEALEEVFKR, peptide start residue: 123) (UniProt O75864) | -0.416
4 | UniProt O75771 (peptide sequence: EGLALMMQLAR, peptide start residue: 222) | -0.403
5 | UniProt O95696 (peptide sequence: LDAGLTNGFGGAR, peptide start residue: 819) | -0.278
6 | UniProt O95251 (peptide sequence: YLHNFQGK, peptide start residue: 530) | -0.161
7 | MFN2 (peptide sequence: LSRPNIFILNNR, peptide start residue: 248) (UniProt O95140) | 0.269
8 | MAP4K4 (peptide sequence: NYMQRPSTEQLLK, peptide start residue: 273) (UniProt O95819) | -0.175
9 | UniProt O75437 (peptide sequence: TFNWSSTLTNHR, peptide start residue: 218) | 0.125
10 | ZMPSTE24 (peptide sequence: DIQEDSGMEPR, peptide start residue: 293) (UniProt O75844) | -0.167
11 | ZFYVE9 (peptide sequence: LQIPKPLSDHLQNDFPANSGNNTK, peptide start residue: 589) (UniProt O95405) | 0.379
12 | EIF3G (peptide sequence: DTLGPMQK, peptide start residue: 173) (UniProt O75821) | 0.368
13 | CCNDBP1 (peptide sequence: MLVAENGKK, peptide start residue: 260) (UniProt O95273) | -0.131
14 | HSBP1 (peptide sequence: FQTMSDQIIGR, peptide start residue: 27) (UniProt O75506) | -0.00888
15 | IPO13 (peptide sequence: CGEVESVGK, peptide start residue: 848) (UniProt O94829) | -0.279
16 | UniProt O75526 (peptide sequence: VEADRPGK, peptide start residue: 2) | 0.0978
17 | DDHD2 (peptide sequence: IDPNYRFPTCK, peptide start residue: 521) (UniProt O94830) | 0.247
18 | PGK1 (peptide sequence: NNQITNNQR, peptide start residue: 31) (UniProt P00558) | -0.0906
19 | KIF20A (peptide sequence: EAGNINTSLHTLGR, peptide start residue: 426) (UniProt O95235) | -0.364
20 | SFT2D2 (peptide sequence: VLSGQDTEDR, peptide start residue: 7) (UniProt O95562) | 0.0474
21 | C6orf47 (peptide sequence: WDHVDSGGTR, peptide start residue: 117) (UniProt O95873) | -0.0459
22 | ALDH1A1 (peptide sequence: LECGGGPWGNK, peptide start residue: 368) (UniProt P00352) | 0.189
23 | ALDH1A2 (peptide sequence: IEMPGEVK, peptide start residue: 6) (UniProt O94788) | 0.0686
24 | TADA2A (peptide sequence: EVQDLYETMR, peptide start residue: 246) (UniProt O75478) | 0.557
25 | CAVIN2 (peptide sequence: RLENNHAQLLR, peptide start residue: 141) (UniProt O95810) | 0.0863
26 | GSR (peptide sequence: GHAAFTSDPKPTIEVSGK, peptide start residue: 172) (UniProt P00390) | 0.303
27 | AIFM1 (peptide sequence: LNDGSQITYEK, peptide start residue: 245) (UniProt O95831) | -0.438
28 | UniProt O95789 (peptide sequence: HSSPACLPPPPKK, peptide start residue: 124) | -0.222

Some of the entries so far, tab-delimited.
Row	Target	log2 fold change
18	PGK1 (peptide sequence: NNQITNNQR, peptide start residue: 31) (UniProt P00558)	-0.0906
19	KIF20A (peptide sequence: EAGNINTSLHTLGR, peptide start residue: 426) (UniProt O95235)	-0.364
